The values that follow are results of earlier work, collected in article PMC9298182, “De novo design of type II topoisomerase inhibitors as potential antimicrobial agents targeting a novel binding region” (RSC Medicinal Chemistry, 2022).

Each structure is given as a SMILES string.

The conditions of this data set: development terminated; cited from earlier work.

For the compound `Cl.NCC(NC(=O)c1cccc(-c2cccs2)c1)c1ccc(O)cc1` (stereo not shown) [Compound 1], the in vivo toxicity entry is reported as “observed in vivo toxicity issues”.
